Data taken from PubChem BioAssay AID2685 (National Center for Advancing Translational Sciences (NCATS), 2010).
Some of the results follow. These are further read-outs of the screen, such as a control signal, another cell line or another target. No call is given for them. Most of these compounds were active or inconclusive in the main read-out, so they are no random draw. Words in brackets tell the shape of the fitted curve; partial curves, single points and poor fits give uncertain potencies.

Experiment: qHTS Assay for Lipid Storage Modulators in Drosophila S3 Cells;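 as to cell number change: cells counted by Cell Tracker Red CMTPX staining in the red channel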
Conditions: BODIPY lipid droplet fluorescence, 18-24 h; for cell number change: measured here: cell count max response, cells fed with added oleic acid
Procedure, shortened: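 Laser-scanning cytometry quantifies lipid droplet accumulation (500–530 nm total intensity; droplet/cell object ratio) in oleic acid-fed (400 uM added) Drosophila S3 cells treated with a concentration series. 20 uM Triacsin C defined 100% inhibition.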

[1] = measured here: cell number channel AC50, cells fed with added oleic acid
[2] = measured here: lipid fluorescence (Fed channel) AC50, cells fed with added oleic acid

Structure (SMILES) | cell number change [%] | AC50 [1] | AC50 [2]
O=C(Cc1cccs1)N1CCN=C1SCc1ccccc1F | 46.5 | 11.6 µM [rising, partial curve, poor fit] | 14.6 µM [rising, partial curve]
O=c1c2ccccc2cnn1Cc1n[nH]c(=S)n1-c1ccccc1F | 13 | – | –
CCCCCCCCCCCCCCCC[n+]1ccc(C(N)=O)cc1 | -10 | – | 32.6 µM [falling, single point]
COC(=O)N1CCN(CCc2ccccc2)CC1 | -23.1 | 4.61 µM [falling, full curve, poor fit] | –
Cc1cc(C)cc(-c2nnc(SCC(=O)N3CCN(C(=O)c4ccco4)CC3)o2)c1 | 4.24 | – | 4.11 µM [rising, single point]
CC1(C)NC(=O)N(CC(O)CN(c2ccccc2)S(=O)(=O)c2ccccc2)C1=O (centres undefined) | -4.17 | – | 0.00651 µM [falling, full curve, poor fit]
Cc1ccc(Nc2nc(N)c([N+](=O)[O-])c(NCc3ccco3)n2)cc1C | -23.3 | – | 20.6 µM [falling, single point]
O=C(c1cccc(F)c1)N1CCC(N2CCCCCC2)CC1 | -46.8 | 2.59 µM [falling, full curve] | 5.8 µM [falling, full curve]
O=[N+]([O-])c1ccc(S(=O)(=O)Nc2nnc(C3CCCCC3)s2)cc1 | -3.48 | – | –
Cc1cc(OC(C)C(=O)NCCCn2ccnc2)c2c(C)cc(=O)oc2c1 (centres undefined) | 5.65 | – | –
CCOC(=O)c1cc(NC(=O)Nc2ccc(OC)c(OC)c2)c(C)nc1C | 17.6 | – | 0.00461 µM [rising, full curve, poor fit]
CN(CCc1ccccc1)C1CCCN(S(=O)(=O)c2cccc(F)c2)C1 (centres undefined) | 15.8 | – | 6.51 µM [rising, single point]
CCOc1ccc2nc(NC(=O)CSc3nc4c(c(=O)n(C)c(=O)n4C)n3C(C)C)sc2c1 | 0.284 | 0.231 µM [rising, full curve, poor fit] | –
CCOc1ccccc1N1CC(C(=O)N(Cc2nnc(-c3ccccc3Cl)o2)C2CC2)CC1=O (centres undefined) | -10.2 | – | –
CC1(C)Cc2c(C#N)c(N3CCN(C(=O)c4ccccc4Cl)CC3)nc(-c3ccco3)c2CS1 | -46.3 | 8.2 µM [falling, partial curve, poor fit] | –
Cc1ccc(C(=O)Nc2cnc3ccccc3c2)cc1 | 65.9 | 0.58 µM [rising, full curve] | –
Cc1cccc(C(=O)NNC2=CC(=O)CC(C)(C)C2)c1O | 7.79 | – | 23.1 µM [rising, single point]
CC(=O)c1ccccc1NC(=O)CN1C(=O)CS/C1=C\c1nc(-c2ccc(C)cc2)cs1 | 10.2 | – | –
COc1ccc(NC(=O)c2cccnc2)c(OC)c1 | -1.08 | – | 0.13 µM [rising, full curve, poor fit]
COc1ccc2cc(C=NS(=O)(=O)c3ccc(C)cc3)n(C)c2c1 | -12 | – | 0.092 µM [rising, full curve, poor fit]
CS(=O)(=O)N(Cc1ccccc1)c1ccc(C(=O)N2CCN(c3cccc(Cl)c3)CC2)cc1 | 10.8 | – | –

3 compounds from above, arranged by molecular weight, low to high:
Structure (SMILES) | cell number change [%] | AC50 [1] | AC50 [2]
COC(=O)N1CCN(CCc2ccccc2)CC1 | -23.1 | 4.61 µM [falling, full curve, poor fit] | –
Cc1ccc(Nc2nc(N)c([N+](=O)[O-])c(NCc3ccco3)n2)cc1C | -23.3 | – | 20.6 µM [falling, single point]
CC(=O)c1ccccc1NC(=O)CN1C(=O)CS/C1=C\c1nc(-c2ccc(C)cc2)cs1 | 10.2 | – | –

Next part.

Structure (SMILES) | cell number change [%] | AC50 [1] | AC50 [2]
CCOc1ccc(-c2n[nH]c(C)c2Oc2ccccc2OC)c(O)c1 | -52.6 | 11.6 µM [falling, partial curve] | 18.4 µM [falling, partial curve]
CCOC(=O)[C@@H]1[C@H]2COc3ccccc3[C@@H]2N2C(=O)N(c3ccccc3)C(=O)[C@@]12C | 21 | – | 29.1 µM [rising, single point]
COCCN1CCN(Cc2cn(C)nc2-c2ccc(Oc3ccccc3)cc2)CC1 | -14.1 | – | –
CCCN(CCC)CCNC(=O)c1cc2c(-c3ccc(Cl)cc3)nn(C)c2s1 | 3.9 | – | –
Cc1ccccc1S(=O)(=O)Cc1ccc(C(=O)N2CCN(c3ccc(F)cc3)CC2)o1 | -39 | 13 µM [falling, partial curve, poor fit] | 18.4 µM [falling, partial curve, poor fit]
CCOC(=O)C(=O)Nc1ccc(S(=O)(=O)N2CCOCC2)cc1OC | -36.7 | 8.2 µM [falling, partial curve, poor fit] | 1.84 µM [falling, full curve, poor fit]
CCn1c(COC(=O)CNC(=O)c2ccccc2)nc2cc(S(=O)(=O)N(C)C)ccc21 | 24.5 | – | –
O=C(CSc1nnc(Cc2ccccc2)o1)N1CCCc2ccccc21 | 25 | – | –
O=C(Nc1ccc2c(c1)OCCO2)C1CCN(C(=O)c2ccc(F)cc2)CC1 | 34.8 | 29.1 µM [rising, single point] | –
Cc1nc2nc(C)c(CCC(=O)NCCC3=CCCCC3)c(C)n2n1 | 8.39 | – | 4.11 µM [falling, single point]
Nc1nsnc1C(=O)NCCO | -56.3 | 0.411 µM [falling, full curve] | –
CCCCn1cnc2c(sc3nc4c(cc32)CSC(C)(C)C4)c1=O | 16.5 | – | 2.06 µM [rising, full curve]
O=c1[nH]c(=O)n(Cc2ccco2)c2c1C(C(F)(F)F)(C(F)(F)F)N=C(CCc1ccccc1)N2 | -28.1 | – | 29.1 µM [falling, single point]
CS/C(N)=N/N=C/c1ccc2c(c1)OCO2 | – | – | 2.06 µM [rising, partial curve]
COc1ccc(NC(=O)c2ccccn2)cc1 | 19.5 | – | 6.51 µM [falling, partial curve, poor fit]
COc1ccc(-c2cn3nc4c(nc3n2)CCCC4)cc1 | 69.5 | 18.4 µM [rising, single point] | –
Cc1cccc(C)c1NC(=O)CN(C)C(=O)CN1C(=O)NC2(CCCC2)C1=O | -23 | – | 29.1 µM [falling, single point]
O=Cc1ccc(OCc2cccc(C(F)(F)F)c2)cc1O | -7.29 | 3.66 µM [falling, single point] | –
Cc1ccc(NC(=O)CSc2nc(=O)n(CCCN3CCOCC3)c3c2CCCC3)cc1F | 18 | – | –
CCn1c(SCC(=O)Nc2ccc(F)cc2)nnc1-c1cnccn1 | – | – | 6.51 µM [falling, single point]
